Test results taken from PubChem BioAssay AID493014 (National Center for Advancing Translational Sciences (NCATS), 2011).
The list shows a part of the results. Further columns of the screen follow, without active or inactive calls. Compounds called inactive in the main read-out are mostly missing here. Potencies come from curve fits of mixed quality, noted in brackets.

Test: qHTS Assay to Find Inhibitors of Chronic Active B-Cell Receptor Signaling
Details: ABC-DLBCL IkBa-CBG/CBR reporter, luminescence ratio (green luciferase fused to IkBa over red control in TMD8 lymphoma cells), 4 h
Summary of the method: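 Compounds up to 46 uM were incubated four hours with TMD8 cells whose green CBG68 luciferase is fused to IkappaBalpha; red CBR luminescence normalised the signal, and concentration-effect curves were fitted to fusion, red and ratio data.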

[1] = measured here: CBR red luminescence, cell number
[2] = measured here: IkBa-CBG green luminescence

SMILES | AC50 [1] | AC50 [2]
COc1ccc(C(c2sc3ncnn3c2O)N2CC(C)OC(C)C2)cc1OC (stereo unspecified) | 5.8 µM [falling, partial curve] | –
Cc1onc(-c2ccccc2Cl)c1C(=O)Oc1cc(N)n(S(=O)(=O)c2ccc(F)cc2)n1 | 35.5 µM [falling, single point] | –
CN1CCN(C(=S)NCCc2ccccc2)CC1 | 29.1 µM [rising, single point] | –
Cc1ccccc1Nc1nc(N)nc(COC(=O)[C@@H](NC(=O)c2ccccc2Cl)C(C)C)n1 | 29.1 µM [rising, single point] | –
Cc1cc(/C=N/NC(=O)c2cccnc2)c(C)n1CC(C)C | 22.4 µM [falling, single point] | –
Cc1c(-c2cccs2)[n+](=O)c2c(n1[O-])CCCC2 | 1.84 µM [rising, partial curve, poor fit] | –
Cc1ccc(NCc2nnc(SCC(=O)Nc3ncc(C)s3)n2CC2CCCO2)c(C)c1 (stereo unspecified) | 11.2 µM [falling, partial curve, poor fit] | –
Nc1cccc(CN2CCCC2)c1 | 5.62 µM [falling, partial curve, poor fit] | –
Cc1cc(C)c(C)c(S(=O)(=O)N2CCN(C(=O)c3cc(=O)[nH]c4ccccc34)CC2)c1C | 7.08 µM [rising, partial curve, poor fit] | 14.1 µM [falling, partial curve, poor fit]
O=C(Nc1nc(-c2ccco2)c(-c2ccco2)s1)C1CC(=O)N(c2ccc3c(c2)OCCO3)C1 (stereo unspecified) | 13 µM [falling, partial curve, poor fit] | –
N#Cc1ccc(/C=C(\C(=O)C(=O)O)c2ccc3ccccc3n2)cc1 | 2.82 µM [rising, full curve, poor fit] | –
CC(=O)c1c[nH]c2ccc(C)cc2c1=O | 9.2 µM [falling, partial curve, poor fit] | –
O=C(NCc1cccc(Cl)c1)c1cc(=O)[nH]c2ccccc12 | 3.98 µM [rising, full curve, poor fit] | –
CCN1C(=O)/C(=C/C=C2/CCCN2C)OC1=S | 6.31 µM [rising, partial curve, poor fit] | –
COc1cccc(N2CCN(CC(=O)NC(C)c3ccccc3)CC2)c1 (stereo unspecified) | 39.8 µM [rising, partial curve, poor fit] | –
O=C(CN(c1ccc2c(c1)OCCO2)S(=O)(=O)c1ccccc1)N1CCN(Cc2ccccc2)CC1 | 22.4 µM [rising, single point] | –
C/C(=N\NC(=O)COc1ccc(C)cc1[N+](=O)[O-])c1cccs1 | 0.251 µM [rising, full curve, poor fit] | –
COc1c(C(=O)Nc2nnc(C3CC3)s2)csc1Cl | 0.562 µM [rising, full curve, poor fit] | –
CCc1cccc2c(C(=O)CN3C(=O)NC(C)(c4cccc5ccccc45)C3=O)c[nH]c12 (stereo unspecified) | 7.08 µM [falling, partial curve] | –
CC(=O)Nc1ccc(C(=O)OC2CCCCC2=O)cc1 (stereo unspecified) | 8.2 µM [rising, partial curve, poor fit] | –

SMILES | AC50 [1] | AC50 [2]
Cc1c(C)c2ccc(OC3CCCCC3=O)cc2oc1=O (stereo unspecified) | 5.17 µM [rising, full curve, poor fit] | –
COc1cc(C(=O)NNC(=S)NC(=O)c2ccc(F)cc2)cc(OC)c1OC | 8.91 µM [rising, partial curve, poor fit] | –
Cc1ccc(C(=O)/C=C/Nc2cccc(O)c2)cc1 | 20.6 µM [falling, partial curve] | –
Cc1ccc(S(=O)(=O)c2nc(C)c3c(n2)CCC3)cc1 | 18.4 µM [rising, single point] | –
CC(C)OP(=O)(c1ccc(N(C)C)cc1)C(O)c1ccc(Br)cc1 (stereo unspecified) | 5.62 µM [rising, partial curve, poor fit] | –
C[C@H](NC(=O)c1[nH]cnc1C(=O)Nc1ccccc1)c1ccccc1 | – | 20.6 µM [rising, partial curve, poor fit]
C=CC[C@@H](Cc1ccc(F)cc1)C(=O)OC[C@H]1CCCN1C(=O)[C@@H](CC=C)CC(=O)N(CCO)Cc1ccccc1 | 16.4 µM [falling, partial curve] | –
Cc1cc(C(F)(F)F)n2nc(-c3cnn(C)c3C(F)(F)F)c(Cl)c2n1 | 20 µM [rising, partial curve, poor fit] | –
Cc1[nH]c2ccccc2c1C(c1ccncc1)N1CCN(c2ccccc2F)CC1 (stereo unspecified) | 20.6 µM [falling, single point] | –
O=C(Nc1ccc2nc(N3CCOCC3)sc2c1)c1ccccc1 | 16.4 µM [falling, single point] | –
NC(=O)c1cc2ccccc2o/c1=N\NC(=O)c1ccc(F)cc1 | 0.794 µM [rising, full curve, poor fit] | –
COC(=O)CNC(=O)CCC(=O)N1CCN(C(c2ccccc2)c2ccccc2)CC1 | 3.98 µM [rising, single point] | –
COc1ccc(CCNc2ccncn2)cc1OC | 16.4 µM [rising, single point] | –
C[C@H](CO)N1C[C@H](C)[C@@H](CN(C)Cc2ccc(Cl)c(Cl)c2)Oc2c(NC(=O)Cc3ccccc3)cccc2C1=O | 20.6 µM [falling, partial curve] | –
O=C(CN1CCN(S(=O)(=O)c2ccc(Cl)c(Cl)c2)CC1)N1CCCC1 | – | 32.6 µM [falling, partial curve, poor fit]
O=C(Nc1cc(Cl)ccc1N1CCOCC1)c1ccc(Br)o1 | 0.282 µM [rising, full curve, poor fit] | –
Oc1ccc(Cl)cc1CNCc1ccc(F)c(F)c1 | 6.51 µM [rising, partial curve, poor fit] | –
O=C(N/N=C/c1ccco1)c1cc(-c2ccc3ccccc3c2)n[nH]1 | 32.6 µM [falling, single point] | 7.31 µM [rising, partial curve, poor fit]
O=C(NCc1cccnc1)c1c[nH]c2cc3c(cc2c1=O)OCCO3 | 10 µM [falling, partial curve, poor fit] | –

A second format for two compounds above:

| SMILES | AC50 [1] | AC50 [2] |
| --- | --- | --- |
| C=CC[C@@H](Cc1ccc(F)cc1)C(=O)OC[C@H]1CCCN1C(=O)[C@@H](CC=C)CC(=O)N(CCO)Cc1ccccc1 | 16.4 µM [falling, partial curve] | – |
| Cc1cc(C(F)(F)F)n2nc(-c3cnn(C)c3C(F)(F)F)c(Cl)c2n1 | 20 µM [rising, partial curve, poor fit] | – |
